Results reported in article PMC5490264.
Results are given in words; binding and its absence hold for the method and conditions named. Binding seen in cells or lysates may run through a third protein. Here binding means that the protein was enriched with, or labelled near, the bait; the list need not be complete.

Amino acid sequences for entries named in this document (tags omitted).
UniProt Q79NI3: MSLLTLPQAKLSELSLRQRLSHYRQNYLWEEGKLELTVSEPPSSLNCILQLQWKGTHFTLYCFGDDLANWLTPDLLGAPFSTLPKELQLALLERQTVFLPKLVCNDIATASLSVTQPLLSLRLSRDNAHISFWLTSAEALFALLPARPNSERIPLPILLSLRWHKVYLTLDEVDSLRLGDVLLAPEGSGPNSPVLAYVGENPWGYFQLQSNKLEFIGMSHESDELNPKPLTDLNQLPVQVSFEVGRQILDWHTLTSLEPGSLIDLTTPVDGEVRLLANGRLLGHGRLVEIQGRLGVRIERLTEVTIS
UniProt Q01253: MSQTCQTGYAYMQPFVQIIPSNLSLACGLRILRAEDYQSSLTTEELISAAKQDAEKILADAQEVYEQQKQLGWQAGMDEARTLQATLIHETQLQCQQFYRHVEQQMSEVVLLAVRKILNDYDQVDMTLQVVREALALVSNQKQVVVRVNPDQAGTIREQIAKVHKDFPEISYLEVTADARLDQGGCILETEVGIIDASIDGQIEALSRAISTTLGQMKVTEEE

Biological target: Halo-YscQ (Yersinia enterocolitica) (UniProt Q79NI3)
Test: affinity purification with mass spectrometry; Halo-tagged bait covalently bound to Magne HaloTag beads from lysate of Y. enterocolitica (otherwise WT strain; non-secreting, 5 mM CaCl2, and secreting, 5 mM EDTA, conditions); HaloTag purification buffer with MgCl2, 2 h at 4 °C; partners eluted at 95 °C in SDS buffer; LC-MS/MS, label-free quantification against the untagged WT control

Substance: Halo-YscQ (from UniProt Q79NI3 1-307)
- binding: binds

Substance: YscL (from UniProt Q01253 1-223)
- binding: binds
